This is an account of results in publication PMC10657414, “LncRNA INHEG promotes glioma stem cell maintenance and tumorigenicity through regulating rRNA 2’-O-methylation” (Nature Communications, 2023).

Sequences of proteins named here, by UniProt entry; tags and fusion partners are left off.
UniProt Q92804: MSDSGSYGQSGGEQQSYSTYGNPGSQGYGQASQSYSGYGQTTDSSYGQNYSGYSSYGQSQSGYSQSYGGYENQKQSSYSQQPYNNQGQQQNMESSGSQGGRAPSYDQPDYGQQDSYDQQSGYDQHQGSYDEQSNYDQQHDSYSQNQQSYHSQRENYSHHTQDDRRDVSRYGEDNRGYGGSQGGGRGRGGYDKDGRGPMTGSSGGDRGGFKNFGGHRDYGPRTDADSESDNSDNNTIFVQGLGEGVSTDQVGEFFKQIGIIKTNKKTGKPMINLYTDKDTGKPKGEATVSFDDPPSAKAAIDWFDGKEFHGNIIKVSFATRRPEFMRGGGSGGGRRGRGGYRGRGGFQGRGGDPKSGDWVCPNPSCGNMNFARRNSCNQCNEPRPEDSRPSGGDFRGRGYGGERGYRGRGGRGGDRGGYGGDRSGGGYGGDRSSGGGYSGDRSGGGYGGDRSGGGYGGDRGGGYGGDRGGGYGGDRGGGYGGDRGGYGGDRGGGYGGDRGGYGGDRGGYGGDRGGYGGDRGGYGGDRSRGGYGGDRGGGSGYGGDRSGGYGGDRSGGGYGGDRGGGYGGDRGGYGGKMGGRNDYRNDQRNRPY
UniProt P63279: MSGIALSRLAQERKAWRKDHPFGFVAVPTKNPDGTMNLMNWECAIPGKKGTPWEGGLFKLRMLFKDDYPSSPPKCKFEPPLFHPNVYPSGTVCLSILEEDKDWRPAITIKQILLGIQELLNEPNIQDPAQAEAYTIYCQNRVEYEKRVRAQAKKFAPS

Assay [1] concerns the target TAF15, endogenous in glioma cells (human (endogenous in U87-MG and U251-MG)) (UniProt Q92804). Kind of assay: co-IP; TAF15 antibody (by the legend), whole-cell lysates of U87-MG and U251-MG, endogenous proteins; also in cells with dCas9-VP64 INHEG overexpression or a non-targeting sgRNA.
The target is the same in assay [2]. Described as above. The source holds these as a separate data set.
For assay [3], the target named is TAF15, ectopically expressed in 293T cells (human) (UniProt Q92804). Description: co-IP; TAF15 and NOP58 ectopically expressed in 293T; also with ectopic INHEG and with RNase A treatment of the lysates.
The target in assay [4] is T1, NOP58 (NOP58 Ribonucleoprotein), endogenous in glioma cells (human (endogenous in U87-MG and U251-MG)) (UniProt Q9Y2X3).
T1 sequence: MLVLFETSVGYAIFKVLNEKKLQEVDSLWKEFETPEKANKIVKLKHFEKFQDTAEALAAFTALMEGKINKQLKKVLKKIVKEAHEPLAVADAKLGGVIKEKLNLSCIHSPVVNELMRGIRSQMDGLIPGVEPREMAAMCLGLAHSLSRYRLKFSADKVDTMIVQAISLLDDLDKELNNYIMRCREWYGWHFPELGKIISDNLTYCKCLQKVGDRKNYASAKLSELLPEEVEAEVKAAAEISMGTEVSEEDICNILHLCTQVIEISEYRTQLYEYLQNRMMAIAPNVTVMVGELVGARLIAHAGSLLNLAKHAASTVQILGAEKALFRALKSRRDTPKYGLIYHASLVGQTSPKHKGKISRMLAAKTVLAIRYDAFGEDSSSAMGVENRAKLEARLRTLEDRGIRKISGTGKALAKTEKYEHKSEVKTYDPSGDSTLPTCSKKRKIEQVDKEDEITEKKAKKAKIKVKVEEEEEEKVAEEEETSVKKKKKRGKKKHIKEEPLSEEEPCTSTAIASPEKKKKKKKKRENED
Kind of assay: co-IP; anti-NOP58 antibody, whole-cell lysates of U251-MG with KRAB-dCas9 INHEG knockdown, dCas9-VP64 INHEG overexpression or a non-targeting sgRNA; blot for NHP2L1.

Like-named read-outs stand apart in the source and are kept apart here. No constants are given. Whether binding was seen depends on the method and setting. In cells and extracts the contact can be indirect. Some entries that bind do so weakly or less than the wild type.

Turning to “UBC9 (SUMO2 E2 ligase), endogenous in glioma cells (from UniProt P63279 1-158) (enzyme)”, the binding result in assay [1] is given as “binds”.

B1: NOP58 (NOP58 Ribonucleoprotein), endogenous in glioma cells (protein, UniProt Q9Y2X3 1-529)
chain: T1 sequence
B1: the binding result in assay [2] was “binds”.

B2: NOP58, ectopically expressed in 293T cells (protein, UniProt Q9Y2X3 1-529)
chain: T1 sequence
On to B2, for which, in assay [3], the binding entry was “binds”.

B3: NHP2L1, endogenous in U251-MG cells (protein, UniProt P55769 1-128)
chain: MTEADVNPKAYPLADAHLTKKLLDLVQQSCNYKQLRKGANEATKTLNRGISEFIVMAADAEPLEIILHLPLLCEDKNVPYVFVRSKQALGRACGVSRPVIACSVTIKEGSQLKQQIQSIQQSIERLLV
On to B3, for which the binding entry in assay [4] is “binds”.
